Assay results published in PMC3021539.
These are yes or no findings as the source states them, for the method shown. Binding calls can cover weak binding; strength is not graded here.

Target: HIV-1 Gag (HIV-1)
Test: virus-like-particle incorporation assay; 293T cells co-transfected with 1.0 µg TRIM plasmid and 0.2 µg (0.25 µg in the human TRIM panel) codon-optimized HIV-1 Gag-Pol plasmid pH-GP; filtered supernatant centrifuged at 18,000×g for 90 min through 20% sucrose, washed in PBS; pelleted VLPs immunoblotted with anti-HA and anti-p24

B1: Human TRIM18 (protein, UniProt O15344 1-667)
chain: METLESELTCPICLELFEDPLLLPCAHSLCFNCAHRILVSHCATNESVESITAFQCPTCRHVITLSQRGLDGLKRNVTLQNIIDRFQKASVSGPNSPSETRRERAFDANTMTSAEKVLCQFCDQDPAQDAVKTCVTCEVSYCDECLKATHPNKKPFTGHRLIEPIPDSHIRGLMCLEHEDEKVNMYCVTDDQLICALCKLVGRHRDHQVAALSERYDKLKQNLESNLTNLIKRNTELETLLAKLIQTCQHVEVNASRQEAKLTEECDLLIEIIQQRRQIIGTKIKEGKVMRLRKLAQQIANCKQCIERSASLISQAEHSLKENDHARFLQTAKNITERVSMATASSQVLIPEINLNDTFDTFALDFSREKKLLECLDYLTAPNPPTIREELCTASYDTITVHWTSDDEFSVVSYELQYTIFTGQANVVSLCNSADSWMIVPNIKQNHYTVHGLQSGTKYIFMVKAINQAGSRSSEPGKLKTNSQPFKLDPKSAHRKLKVSHDNLTVERDESSSKKSHTPERFTSQGSYGVAGNVFIDSGRHYWEVVISGSTWYAIGLAYKSAPKHEWIGKNSASWALCRCNNNWVVRHNSKEIPIEPAPHLRRVGILLDYDNGSIAFYDALNSIHLYTFDVAFAQPVCPTFTVWNKCLTIITGLPIPDHLDCTEQLP
  binding: binds weakly
